This is an account of results in the supplement of paper PMC10849652.

The chains behind the UniProt entries cited, without tags or fusion partners. Where a name states a change or a piece, a line headed by the entry shows the natural chain unless it says otherwise.
UniProt Q8N357: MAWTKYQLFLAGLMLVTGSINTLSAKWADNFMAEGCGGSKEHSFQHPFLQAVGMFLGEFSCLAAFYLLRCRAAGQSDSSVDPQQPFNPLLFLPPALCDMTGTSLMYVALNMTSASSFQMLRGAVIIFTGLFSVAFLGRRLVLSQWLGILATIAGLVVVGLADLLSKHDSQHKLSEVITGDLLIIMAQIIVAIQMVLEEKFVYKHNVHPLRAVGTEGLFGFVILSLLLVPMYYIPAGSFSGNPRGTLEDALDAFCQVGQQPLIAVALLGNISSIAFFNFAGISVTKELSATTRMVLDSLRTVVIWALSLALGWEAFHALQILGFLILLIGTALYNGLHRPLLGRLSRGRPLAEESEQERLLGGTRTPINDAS
UniProt Q5SVS4: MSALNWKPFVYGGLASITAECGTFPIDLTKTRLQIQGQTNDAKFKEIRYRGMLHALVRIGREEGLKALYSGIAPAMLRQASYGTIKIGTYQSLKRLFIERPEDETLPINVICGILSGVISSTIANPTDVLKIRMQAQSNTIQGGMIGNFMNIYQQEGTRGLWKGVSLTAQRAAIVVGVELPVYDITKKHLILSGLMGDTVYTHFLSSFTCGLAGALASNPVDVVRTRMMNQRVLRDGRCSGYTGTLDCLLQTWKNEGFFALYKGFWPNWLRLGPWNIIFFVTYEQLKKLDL
UniProt O15431: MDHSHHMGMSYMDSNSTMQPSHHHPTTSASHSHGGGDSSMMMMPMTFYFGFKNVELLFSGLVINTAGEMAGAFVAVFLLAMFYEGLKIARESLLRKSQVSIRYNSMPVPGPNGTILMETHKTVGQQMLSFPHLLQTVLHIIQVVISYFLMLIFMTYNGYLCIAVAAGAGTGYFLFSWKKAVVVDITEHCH
UniProt Q6P1K1: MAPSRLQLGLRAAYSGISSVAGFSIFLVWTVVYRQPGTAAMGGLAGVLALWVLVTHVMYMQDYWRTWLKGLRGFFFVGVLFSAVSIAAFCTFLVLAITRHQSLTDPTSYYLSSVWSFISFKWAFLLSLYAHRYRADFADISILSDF
UniProt Q8WU79: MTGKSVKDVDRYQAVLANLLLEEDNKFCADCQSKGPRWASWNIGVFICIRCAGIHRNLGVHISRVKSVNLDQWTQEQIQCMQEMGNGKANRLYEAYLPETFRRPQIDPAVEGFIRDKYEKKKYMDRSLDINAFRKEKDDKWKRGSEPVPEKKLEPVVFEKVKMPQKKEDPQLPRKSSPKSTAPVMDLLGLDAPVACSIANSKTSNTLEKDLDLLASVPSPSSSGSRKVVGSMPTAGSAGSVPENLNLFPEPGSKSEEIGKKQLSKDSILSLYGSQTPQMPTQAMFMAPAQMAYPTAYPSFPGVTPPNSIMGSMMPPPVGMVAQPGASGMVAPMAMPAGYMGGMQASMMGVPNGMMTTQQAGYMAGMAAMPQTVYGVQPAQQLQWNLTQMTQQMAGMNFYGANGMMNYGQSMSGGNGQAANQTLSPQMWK
UniProt O95391: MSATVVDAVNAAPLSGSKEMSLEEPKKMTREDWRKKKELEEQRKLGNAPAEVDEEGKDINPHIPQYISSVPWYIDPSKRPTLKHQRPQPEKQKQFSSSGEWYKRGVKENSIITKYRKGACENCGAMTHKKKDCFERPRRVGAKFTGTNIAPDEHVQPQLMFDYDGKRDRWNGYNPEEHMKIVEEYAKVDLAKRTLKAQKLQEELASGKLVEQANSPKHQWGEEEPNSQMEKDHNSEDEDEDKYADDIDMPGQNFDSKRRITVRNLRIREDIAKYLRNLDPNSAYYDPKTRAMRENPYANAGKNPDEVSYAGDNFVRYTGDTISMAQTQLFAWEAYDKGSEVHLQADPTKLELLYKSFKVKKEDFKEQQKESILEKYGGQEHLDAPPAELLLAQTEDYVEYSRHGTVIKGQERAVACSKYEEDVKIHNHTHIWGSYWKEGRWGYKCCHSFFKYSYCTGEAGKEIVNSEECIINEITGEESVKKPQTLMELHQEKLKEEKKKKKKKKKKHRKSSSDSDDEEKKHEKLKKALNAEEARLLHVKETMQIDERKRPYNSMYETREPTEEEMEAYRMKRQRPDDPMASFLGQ
UniProt P52569: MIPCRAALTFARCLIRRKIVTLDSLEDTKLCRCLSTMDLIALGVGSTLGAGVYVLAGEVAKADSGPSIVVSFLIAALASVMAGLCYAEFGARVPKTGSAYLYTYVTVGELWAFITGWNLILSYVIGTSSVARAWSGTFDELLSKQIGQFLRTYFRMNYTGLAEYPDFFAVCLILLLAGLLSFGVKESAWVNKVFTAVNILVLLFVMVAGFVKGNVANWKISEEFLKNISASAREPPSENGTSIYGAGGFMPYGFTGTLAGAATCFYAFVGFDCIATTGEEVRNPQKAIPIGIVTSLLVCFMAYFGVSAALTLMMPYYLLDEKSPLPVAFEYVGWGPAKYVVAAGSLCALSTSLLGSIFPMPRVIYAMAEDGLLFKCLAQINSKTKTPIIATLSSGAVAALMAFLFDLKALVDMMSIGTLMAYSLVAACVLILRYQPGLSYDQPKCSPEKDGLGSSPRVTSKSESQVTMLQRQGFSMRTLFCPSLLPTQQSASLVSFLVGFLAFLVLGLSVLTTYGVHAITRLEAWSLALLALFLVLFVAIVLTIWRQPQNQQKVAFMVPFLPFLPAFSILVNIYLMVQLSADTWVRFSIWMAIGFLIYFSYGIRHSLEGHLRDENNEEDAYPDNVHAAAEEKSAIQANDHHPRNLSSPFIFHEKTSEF
UniProt Q9H1U9: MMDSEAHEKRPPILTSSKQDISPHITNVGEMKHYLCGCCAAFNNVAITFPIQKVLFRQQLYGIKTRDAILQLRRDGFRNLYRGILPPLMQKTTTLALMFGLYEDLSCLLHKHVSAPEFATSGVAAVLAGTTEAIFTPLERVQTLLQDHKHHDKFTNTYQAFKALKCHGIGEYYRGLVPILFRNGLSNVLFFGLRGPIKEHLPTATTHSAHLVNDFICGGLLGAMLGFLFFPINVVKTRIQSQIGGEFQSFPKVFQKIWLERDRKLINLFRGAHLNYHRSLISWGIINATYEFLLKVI
UniProt P50443: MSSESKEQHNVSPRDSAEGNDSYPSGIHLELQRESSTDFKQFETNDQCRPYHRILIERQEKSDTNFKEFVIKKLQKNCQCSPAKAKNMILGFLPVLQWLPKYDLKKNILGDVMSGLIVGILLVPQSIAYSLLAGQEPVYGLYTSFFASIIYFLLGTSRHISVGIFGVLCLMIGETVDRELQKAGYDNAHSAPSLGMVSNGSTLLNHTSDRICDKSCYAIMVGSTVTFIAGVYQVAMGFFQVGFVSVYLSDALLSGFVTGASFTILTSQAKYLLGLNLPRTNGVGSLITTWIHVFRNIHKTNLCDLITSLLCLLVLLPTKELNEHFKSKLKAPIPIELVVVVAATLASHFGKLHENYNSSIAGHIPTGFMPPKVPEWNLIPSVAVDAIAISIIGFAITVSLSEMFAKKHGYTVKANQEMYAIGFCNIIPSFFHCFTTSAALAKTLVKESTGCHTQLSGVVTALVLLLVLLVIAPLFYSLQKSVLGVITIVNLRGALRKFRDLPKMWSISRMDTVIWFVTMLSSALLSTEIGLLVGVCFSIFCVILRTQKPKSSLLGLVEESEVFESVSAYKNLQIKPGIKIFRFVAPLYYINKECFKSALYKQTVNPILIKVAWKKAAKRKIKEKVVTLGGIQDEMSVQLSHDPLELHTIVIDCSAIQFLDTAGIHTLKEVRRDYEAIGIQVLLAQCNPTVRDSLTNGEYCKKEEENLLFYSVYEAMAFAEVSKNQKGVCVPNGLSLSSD
UniProt P53007, whole entry, looked up: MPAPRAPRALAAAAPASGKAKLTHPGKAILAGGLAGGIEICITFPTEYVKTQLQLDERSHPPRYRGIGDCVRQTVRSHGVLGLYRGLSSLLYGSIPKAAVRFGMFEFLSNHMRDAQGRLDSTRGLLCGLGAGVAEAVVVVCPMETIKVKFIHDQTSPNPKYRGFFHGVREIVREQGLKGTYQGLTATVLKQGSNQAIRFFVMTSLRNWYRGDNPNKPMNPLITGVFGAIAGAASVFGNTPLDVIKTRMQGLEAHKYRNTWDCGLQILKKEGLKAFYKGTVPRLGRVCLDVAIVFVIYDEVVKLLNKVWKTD
UniProt O95258: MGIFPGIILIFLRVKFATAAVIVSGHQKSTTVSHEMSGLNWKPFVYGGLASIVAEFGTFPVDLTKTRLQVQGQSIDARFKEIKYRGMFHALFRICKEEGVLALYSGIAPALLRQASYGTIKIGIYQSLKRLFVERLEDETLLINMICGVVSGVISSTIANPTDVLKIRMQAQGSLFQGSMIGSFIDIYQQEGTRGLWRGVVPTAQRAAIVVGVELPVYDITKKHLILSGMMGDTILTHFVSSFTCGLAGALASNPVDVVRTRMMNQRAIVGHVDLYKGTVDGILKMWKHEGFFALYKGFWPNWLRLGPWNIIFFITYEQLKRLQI
UniProt P48029: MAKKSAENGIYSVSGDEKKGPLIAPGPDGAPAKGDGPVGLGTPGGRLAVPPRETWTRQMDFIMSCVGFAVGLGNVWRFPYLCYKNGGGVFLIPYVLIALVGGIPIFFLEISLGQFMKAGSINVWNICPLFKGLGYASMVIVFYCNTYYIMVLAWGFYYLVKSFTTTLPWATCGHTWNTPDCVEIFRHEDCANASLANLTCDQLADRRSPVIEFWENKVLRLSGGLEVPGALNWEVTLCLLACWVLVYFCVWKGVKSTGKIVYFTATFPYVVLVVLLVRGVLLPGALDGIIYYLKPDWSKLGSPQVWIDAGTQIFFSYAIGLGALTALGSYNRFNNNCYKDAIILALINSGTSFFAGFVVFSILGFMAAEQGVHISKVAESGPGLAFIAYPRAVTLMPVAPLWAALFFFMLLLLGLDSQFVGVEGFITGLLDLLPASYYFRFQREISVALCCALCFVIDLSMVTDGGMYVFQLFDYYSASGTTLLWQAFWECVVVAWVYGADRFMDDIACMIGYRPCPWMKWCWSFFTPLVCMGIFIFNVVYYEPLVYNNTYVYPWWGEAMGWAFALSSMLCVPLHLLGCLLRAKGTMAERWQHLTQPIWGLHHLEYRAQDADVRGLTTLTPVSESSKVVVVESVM
UniProt Q8NBW4: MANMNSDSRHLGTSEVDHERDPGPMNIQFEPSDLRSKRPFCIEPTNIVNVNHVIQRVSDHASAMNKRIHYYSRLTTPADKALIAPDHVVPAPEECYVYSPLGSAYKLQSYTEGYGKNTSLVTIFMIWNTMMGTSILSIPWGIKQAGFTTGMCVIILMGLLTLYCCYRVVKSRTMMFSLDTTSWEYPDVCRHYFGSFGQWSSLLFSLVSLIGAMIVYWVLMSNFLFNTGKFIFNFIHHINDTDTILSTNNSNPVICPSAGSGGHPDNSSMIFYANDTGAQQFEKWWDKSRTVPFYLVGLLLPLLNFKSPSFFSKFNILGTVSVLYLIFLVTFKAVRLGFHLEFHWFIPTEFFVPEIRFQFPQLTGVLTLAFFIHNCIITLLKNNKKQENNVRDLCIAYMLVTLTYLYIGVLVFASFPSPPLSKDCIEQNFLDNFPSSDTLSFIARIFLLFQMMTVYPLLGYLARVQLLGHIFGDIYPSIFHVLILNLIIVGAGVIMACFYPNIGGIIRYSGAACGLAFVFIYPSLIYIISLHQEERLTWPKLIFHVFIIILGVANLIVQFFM
UniProt Q8TBP6: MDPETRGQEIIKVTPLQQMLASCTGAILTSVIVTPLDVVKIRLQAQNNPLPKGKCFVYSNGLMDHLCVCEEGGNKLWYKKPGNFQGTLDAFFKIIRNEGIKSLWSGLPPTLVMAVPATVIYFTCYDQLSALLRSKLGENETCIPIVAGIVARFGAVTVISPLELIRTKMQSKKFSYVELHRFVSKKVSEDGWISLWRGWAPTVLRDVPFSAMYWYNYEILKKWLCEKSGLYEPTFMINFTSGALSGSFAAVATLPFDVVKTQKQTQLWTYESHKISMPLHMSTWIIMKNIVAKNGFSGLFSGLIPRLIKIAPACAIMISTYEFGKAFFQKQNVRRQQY
UniProt Q9Y6M5: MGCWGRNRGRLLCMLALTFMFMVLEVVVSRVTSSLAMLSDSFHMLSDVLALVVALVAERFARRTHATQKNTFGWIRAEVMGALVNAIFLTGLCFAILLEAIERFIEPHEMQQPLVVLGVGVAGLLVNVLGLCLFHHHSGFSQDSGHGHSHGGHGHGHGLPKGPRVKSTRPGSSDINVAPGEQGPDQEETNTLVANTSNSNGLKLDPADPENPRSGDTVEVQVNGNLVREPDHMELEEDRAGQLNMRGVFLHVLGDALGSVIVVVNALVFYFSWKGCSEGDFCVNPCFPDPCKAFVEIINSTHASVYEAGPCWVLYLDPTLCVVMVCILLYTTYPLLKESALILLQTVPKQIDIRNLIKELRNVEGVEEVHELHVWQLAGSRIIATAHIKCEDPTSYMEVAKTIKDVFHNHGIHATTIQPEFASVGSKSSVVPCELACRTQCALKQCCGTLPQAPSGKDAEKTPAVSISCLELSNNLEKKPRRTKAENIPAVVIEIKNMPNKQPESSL
UniProt O00193: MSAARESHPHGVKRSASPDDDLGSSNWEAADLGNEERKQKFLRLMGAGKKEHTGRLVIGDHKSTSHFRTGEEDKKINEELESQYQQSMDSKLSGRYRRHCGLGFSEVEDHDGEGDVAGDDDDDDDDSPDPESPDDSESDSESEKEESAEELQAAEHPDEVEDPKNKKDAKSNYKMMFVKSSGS

The other results are listed elsewhere or left out.

Compound in the experiment: C1=CC=C(C=C1)[C@H](COC2=CC3=C(C=C2)NC(=O)N3)NC(=O)C4=CC=CN(C4=O)CC5=CC(=C(C=C5)F)F
Nature of the experiment: log2 fold change, soluble protein after heating vs DMSO (PISA); higher = thermal stabilisation; K562 lysate, 10 uM; active = over 0.2 and 3.5 SD of the protein, either way, in both replicates (recomputed). Summed up:
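Pellets of K562 cells were dounce-homogenised in PBS pH 7.4 with 1 mM MgCl2, and the crude extract was held at 1 mg/mL protein for a 30 min treatment with 10 μM compound. Aliquots were heated for 3 min over 48°C-58°C and pooled before NP-40 was added to 0.5% at 4°C. The supernatant from 21,000xg for 90 min was quantified by TMTpro 16plex LC-MS/MS with channel sums equalised. Values are reported from duplicates as log-two fold change in thermal stability relative to solvent controls.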
As for SLC35F6 (UniProt Q8N357), the log2 fold change is inactive: 0.018.
To SLC25A30 (UniProt Q5SVS4) belongs inactive: 0.023; to SLC31A1 (UniProt O15431), inactive: 0.011; to SLC2A4 (UniProt P14672), inactive: -0.021.
On to SLC25A15 (UniProt Q9Y619), for which the log2 fold change was inactive: 0.023.
Turning to SLTM (UniProt Q9NWH9), the log2 fold change is inactive: 0.016.
To SLMAP isoform 3 (UniProt Q14BN4) belongs inactive: 0.021; to SLC25A25 isoform 3 (UniProt Q6KCM7), inactive: 0.064; to SLC29A2 (UniProt Q14542), inactive: 0.106.
Turning to SLC48A1 (UniProt Q6P1K1), the log2 fold change is inactive: -0.213.
For the target SLC9A7 (UniProt Q96T83), the log2 fold change was inactive: -0.223.
Take SLC38A1 (UniProt Q9H2H9): the log2 fold change is inactive: 0.055.
On to SLC22A5 isoform 3 (UniProt O76082), for which the log2 fold change was inactive: 0.128.
Take SLC43A3 (UniProt Q8NBI5): the log2 fold change was inactive: -0.184.
SLC35B3 (UniProt Q9H1N7): the log2 fold change is inactive: 0.01.
Regarding SMAP2 (UniProt Q8WU79), the log2 fold change was inactive: 0.02.
Take SLU7 (UniProt O95391): the log2 fold change is inactive: -0.015.
Consider SLC7A2 isoform 3 (UniProt P52569), for which the log2 fold change was inactive: -0.024.
The figure for SLC2A3 (UniProt P11169) is inactive: -0.025; for SLC25A51 (UniProt Q9H1U9) it is inactive: -0.015; for SLC25A37 (UniProt Q9NYZ2) it is inactive: -0.036.
For the target SLC25A20 (UniProt O43772), the log2 fold change is inactive: 0.023.
The figure for SLC25A42 (UniProt Q86VD7) is inactive: 0.141; for SLC26A2 (UniProt P50443) it is inactive: -0.192.
Regarding SLC25A1 (UniProt P53007), the log2 fold change was inactive: 0.
On to SLC25A21 (UniProt Q9BQT8), for which the log2 fold change is inactive: 0.053.
To SLC25A14 isoform 3 (UniProt O95258) belongs inactive: 0.002; to SLC30A7 (UniProt Q8NEW0), inactive: -0.076; to SLC6A8 (UniProt P48029), inactive: 0.002.
In the case of SLC35C1 (UniProt Q96A29), the log2 fold change was inactive: -0.223.
As for SMAD2 (UniProt Q15796), the log2 fold change is inactive: -0.006.
The figure for SLC38A9 (UniProt Q8NBW4) is inactive: 0.17; for SLC25A40 (UniProt Q8TBP6) it is inactive: 0.003.
To SLC25A26 (UniProt Q70HW3) belongs inactive: 0.017; to SLC30A1 (UniProt Q9Y6M5), inactive: 0.07.
In the case of SLC43A1 (UniProt O75387), the log2 fold change was inactive: 0.012.
Take SMAP (UniProt O00193): the log2 fold change is inactive: 0.036.
Regarding SLC38A10 (UniProt Q9HBR0), the log2 fold change was inactive: 0.007.
